{"source": "patent US20060047171A1", "about": "“Catalytic hydrogenation of nitriles to produce capsaicinoid derivatives and amine compounds, and methods for purifying and obtaining the polymorphs thereof” (priority 2003, published 2006)", "key": {"[1]": {"assay": "Qualitative solubility of DA-5018 in common solvents", "assay_type": "physicochemical", "settings": "for heating required for complete solubilization: 5 volumes", "method": "In order to show which solvents or solvent/antisolvent combinations are appropriate for crystallization studies, the solubility of DA-5018 in twelve solvents was qualitatively evaluated on a 500 mg-scale. In these experiments, DA-5018 was suspended in 5 volumes of the appropriate solvent and stirred at ambient temperature, then incrementally heated until a complete solubilization was achieved."}, "[2]": {"system": "carrageenan edema of the paw", "assay": "Local anti-inflammatory test (transdermal)", "assay_type": "in vivo, rat", "settings": "administered transdermally; rats; would be expected"}, "[3]": {"assay": "Solubility curve / metastable zone width in methanol/water (1:1.25, v/v)", "assay_type": "physicochemical", "method": "A standard procedure to determine the width of the metastable zone was used to determine the solubility curves of DA-5018 in methanol/water (1:1.25, v/v). In this procedure, DA-5018 (2.0 g) was suspended in 15 mL (7.5 vol) of methanol/water (1:1.25, v/v) and heated until all solids were dissolved (approximately 55° C.). The resulting solution was then very slowly cooled at a fixed rate of 0.2° C./min and the nucleation temperature recorded. The mixture was slowly reheated and the temperature of complete dissolution recorded. The solution was then iteratively diluted with a known volume of solvent and the nucleation as well as the dissolution points recorded at gradually lower concentrations to provide additional data points on the saturation curve as well as on the solubility curve. By definition, for a given concentration, the distance between the solubility curve and the saturation curve provides the metastable zone width (MSZW), in which crystal growth can be achieved upon careful seeding and controlled cooling, antisolvent addition, evaporation or pH adjustment, depending on the chosen crystallization conditions. Such a protocol is often crucial in maximizing crystal growth and curbing spontaneous, secondary nucleation that leads to uncontrolled crystallization."}, "[4]": {"system": "response latency on heated plate", "settings": "mice, cited from earlier work"}}, "note": "Read-outs that look alike come from different tables or passages of the source. For some of these results: At least one read-out could not be matched to a standard name with certainty. For some of these results: For at least one compound, name, drawing or mass did not settle the structure."}
{"smiles": "COc1cc(CC(=O)NCCCc2ccc(C)c(C)c2)ccc1OCCN", "note": "[DA-5018, 2-[4-(2-aminoethoxy)-3-methoxyphenyl]-N-[3-(3,4-dimethylphenyl)propyl]acetamide]", "values": [{"measurement": "heating required for complete solubilization", "setting": "[1]; 2-propanol", "result": "45-50 °C"}, {"measurement": "heating required for complete solubilization", "setting": "[1]; MEK, MIBK, EtOAc, IPAc and acetonitrile", "result": "70-80 °C"}, {"measurement": "solubilization in acetone (in words)", "setting": "[1]; acetone, ambient temperature, 5 vol", "result": "complete solubilization was achieved in 5 vol"}, {"measurement": "heating required for complete solubilization", "setting": "[1]; ethanol and 1-propanol", "result": "35-40 °C"}, {"measurement": "heating required for complete solubilization", "setting": "[1]; methanol", "result": "28-30 °C"}, {"measurement": "heating required for complete solubilization", "setting": "[1]; tetrahydrofuran (THF)", "result": "35-40 °C"}, {"measurement": "inhibition after transdermal administration (in words)", "setting": "[2]", "result": "dose related inhibition of carrageenan induced hyperalgesia"}, {"measurement": "Dissolution Temperature (° C.)", "setting": "[3]; 2.0 g DA-5018 in 15 mL methanol/water (1:1.25, v/v)", "result": 48.2, "unit": "°C"}, {"measurement": "Dissolution Temperature (° C.)", "setting": "[3]; 2.0 g DA-5018 in 20 mL methanol/water (1:1.25, v/v)", "result": 47.8, "unit": "°C"}, {"measurement": "Dissolution Temperature (° C.)", "setting": "[3]; 2.0 g DA-5018 in 25 mL methanol/water (1:1.25, v/v)", "result": 47.8, "unit": "°C"}, {"measurement": "Inhibition (%)", "setting": "[4]; 2.5 mg/Kg p. o.", "result": 28.6, "unit": "%"}, {"measurement": "Inhibition (%)", "setting": "[4]; 5.0 mg/Kg p. o.", "result": 48.9, "unit": "%"}, {"measurement": "Inhibition (%)", "setting": "[4]; 10.0 mg/Kg p. o.", "result": 97.0, "unit": "%"}]}
